# Several values for one entry are separate records, joined by “and”; a condition that tells them apart may be missing. Equal entries are not always repeated. This continues a long series; more values of the same kind are listed elsewhere.
# Test system: adjuvant arthritis (AIA) rat model
# Assay: Rat AIA (adjuvant arthritis) model
# Assay type: in vivo, Lewis rats
# Conditions: AIA rats
# [1] = day 21, 10 mg/kg daily from day 9, individual animals
# [2] = day 22, 10 mg/kg daily from day 9, individual animals
# [3] = day 23, 10 mg/kg daily from day 9, individual animals
Compound,"body weight (day 17, 10 mg/kg daily from day 9, individual animals)","body weight (day 18, 10 mg/kg daily from day 9, individual animals)","body weight (day 19, 10 mg/kg daily from day 9, individual animals)","body weight (day 20, 10 mg/kg daily from day 9, individual animals)",body weight [1],body weight [2],body weight [3]
"O=C(Cc1ccc2ncccc2c1)N1CCC(n2c(=O)[nH]c3cccc(C(F)(F)F)c32)CC1 [GEN1-117, 1-(1-(2-(Quinolin-6-yl)acetyl)piperidin-4-yl)-7-(trifluoromethyl)-1H-benzo[d]imidazol-2(3H)-one]",160 g and 161 g and 189 g and 180 g (2×) and 179 g and 184 g and 150 g,177 g and 178 g and 156 g and 190 g (3×) and 166 g and 165 g and 186 g and 187 g (2×) and 150 g,184 g and 176 g (2×) and 160 g and 193 g (2×) and 173 g (2×) and 186 g (2×) and 192 g and 155 g,190 g and 188 g (2×) and 160 g and 191 g and 182 g and 185 g and 199 g and 184 g and 183 g and 187 g and 152 g,196 g and 188 g and 161 g and 200 g and 192 g and 179 g and 183 g and 197 g and 193 g and 20 g and 195 g and 153 g,202 g and 198 g and 162 g and 213 g and 203 g and 176 g and 197 g (2×) and 207 g and 211 g and 193 g and 154 g,207 g and 198 g and 160 g and 222 g and 215 g and 188 g and 210 g and 214 g and 205 g and 217 g and 195 g and 153 g

# — patent US20240391940A1, “FUSED RING-CONTAINING COMPOUND, APPLICATION THEREOF, AND COMPOSITION CONTAINING SAME” (GenEros Biopharma Ltd., priority 2020, published 2024)
